According to patent US10919938B2, “Modified cyclopentapeptides and uses thereof” (TECHNISCHE UNIVERSITÄT MÜNCHEN, priority 2014, dated 2021):
At least one peptide structure holds a part that was inferred or is arguable (an end, a ring closure or a residue). Non-standard residues stand in square brackets, D forms with d. Residues, ends and D or L forms follow the SMILES beside them. Groups on a side chain read outwards from the residue. *: point of attachment. DOTA = O=C(O)CN1CCN(CC(=O)O)CCN(CC(=O)*)CCN(CC(=O)O)CC1; 2Nal = N[C@@H](Cc1ccc2ccccc2c1)C(=O)O; dNMeOrn = CN[C@H](CCCN)C(=O)O; 4Amb = NCc1ccc(C(=O)O)cc1

Legend:
[1] = system: HT-29 cells; assay: Dual tracer internalization study (adherent cells), HT-29; assay type: cell-based, human; conditions: HT-29, 30 min, 37° C., corrected for non-specific binding (100 μM AMD3100)
Procedure: (§1) 2·10^5 cells per well. On the day of the experiment, the culture medium was removed and the cells were washed once with 250 μL of unsupplemented medium before being left to equilibrate in 200 μL of assay medium at 37° C. for a minimum of 15 min before the experiment. […] (n=3 wells, respectively, per time point). Incubation was terminated by placing the plate on an ice pack for app. 1 min and by subsequent removal of the incubation medium. Cells were thoroughly rinsed with 250 μL of HBSS. After washing twice with 250 μL of ice cold acid wash buffer (0.02 M NaOAc buffered with AcOH to pH=5), cells were lysed with 250 μL of 1 N NaOH. The lysate was transferred to vials and combined with 250 μL of HBSS used for rinsing the wells. Quantification of the amount of free, acid-releasable and internalized activity was performed as described.

[2] = system: SH-SY5Y cells; assay: Dual tracer externalization study (adherent cells), SH-SY5Y; assay type: cell-based, human
Procedure: (§2) In the experiment allowing ligand recycling 250 µL of assay medium were added to the wells (n=3). […] Subsequently, cells were incubated at 37° C. for 5, 15, 30 and 60 min, respectively. The supernatant was removed and combined with 250 μL of HBSS used for rinsing the cells. This fraction represents the amount of externalized ligand at the respective time point. The following lysis of the cells was performed as desribed for the internalization experiment.

[3] = Determination of lipophilicity (octanol/PBS partition); assay type: physicochemical; conditions: octanol / PBS pH 7.4, radiolabeled peptide
Procedure: To a solution of app. 2 kBq of radiolabeled peptide in 500 tiL of PBS (pH 7.4), 500 μL of octanol were added (n=6). Vials were vortexed vigorously for 3 min. To achieve quantitative phase separation, the vials were centrifuged at 14,000×g for 6 min in a Biofuge 15 (Heraeus Sepatech, Osterode, Germany). The activity concentrations in 100 μL-samples of both the aqueous and the organic phase were measured in a γ-counter. Both the partition coefficient Pow, which is defined as the molar concentration ratio of a single species A between octanol and an aqueous phase at equilibrium, and log Pow, which is an important parameter used to characterize lipophilicity of a compound, were calculated.

[4] = system: Daudi cells; assay: Dual tracer externalization study (suspension cells), Daudi; assay type: cell-based, human
Procedure: (§3) To ensure receptor integrity, no acid wash was performed after this initial internalization incubation. Then, to determine the extent of ligand recycling, two different experiments were performed. In the experiment allowing ligand recycling, 250 μL of assay medium were added to each well. […] Experiments were carried out in triplicate for both experimental conditions. Subsequently, the cells were incubated for 5, 15, 30 and 60 minutes at 37° C. Then, the tubes were centrifuged, the supernatant was removed and combined with 250 μL of HBSS used for washing the cells. This fraction represents the amount of externalized ligand. The following steps, i.e. acid wash and quantification of the remaining cellular activity, were performed as described for the internalization experiment.

[5] = system: MCF-7 cells; assay: Dual tracer internalization study (adherent cells), MCF-7; assay type: cell-based, human; conditions: MCF-7, 30 min, 37° C., corrected for non-specific binding (100 μM AMD3100)
Procedure: as §1

[6] = system: MCF-7 cells; assay: Dual tracer externalization study (adherent cells), MCF-7; assay type: cell-based, human
Procedure: as §2

[7] = system: Daudi cells; assay: Dual tracer internalization study (suspension cells), Daudi; assay type: cell-based, human; conditions: 30 min, 37° C., corrected for non-specific binding (100 μM AMD3100)
Procedure: (§4) The total sample volume was 250 μL. After incubation, the tubes were centrifuged (3 min, 1300 rcf, Megafuge 1.0, Heraeus Thermo Scientific), the supernatant was carefully removed and combined with 200 μL of ice cold HBSS used for washing the cells (free radioligand). To remove surface bound (acid releasable) radioactivity, cells were then washed twice with ice cold acid wash buffer (0.02 M NaOAc in saline buffered with AcOH to pH=5). Finally, the amount of internalized activity in the cell pellet as well as the fraction of free and acid releasable ^68Ga-activity were determined using a γ-counter.

[8] = system: Jurkat cells; assay: Dual tracer internalization study (suspension cells), Jurkat; assay type: cell-based, human
Procedure: as §4

[9] = system: SUDHL-8 cells; assay: Dual tracer internalization study (suspension cells), SUDHL-8; assay type: cell-based, human; conditions: SUDHL-8, 30 min, 37° C., corrected for non-specific binding (100 μM AMD3100)
Procedure: as §4

[10] = system: SH-SY5Y cells; assay: Dual tracer internalization study (adherent cells), SH-SY5Y; assay type: cell-based, human; conditions: 30 min, 37° C., corrected for non-specific binding (100 μM AMD3100)
Procedure: as §1

[11] = system: Jurkat cells; assay: Dual tracer externalization study (suspension cells), Jurkat; assay type: cell-based, human
Procedure: as §3

[12] = system: DU-145 cells; assay: Dual tracer internalization study (adherent cells), DU-145; assay type: cell-based, human; conditions: DU-145, 30 min, 37° C., corrected for non-specific binding (100 μM AMD3100)
Procedure: as §1

[13] = system: HT-29 cells; assay: Dual tracer externalization study (adherent cells), HT-29; assay type: cell-based, human
Procedure: as §2

[14] = recycling allowed (medium only)
[15] = recycling inhibited (100 μM AMD3100)

In the case of CN1C(=O)[C@@H](Cc2ccc(O)cc2)NC(=O)CNC(=O)[C@H](Cc2ccc3ccccc3c2)NC(=O)[C@H](CCCNC(=N)N)NC(=O)[C@H]1CCCNC(=O)c1ccc(CNC(=O)CN2CCN(CC(=O)O)CCN(CC(=O)O)CCN(CC(=O)O)CC2)cc1 [yorn′(AMBS, DOTA, ^68Ga)RNalG, metal not drawn, reference compound] (cyclo([dY][dNMeOrn]([4Amb-DOTA])R[2Nal]G)), the “Internalization efficiency (internalized activity in % of total cellular activity)” value [1] is reported as 51.5 ± 9.3 % of total cellular activity, the “Residual internalized activity after a 60 min externalization incubation” value (from here on “Residual internalized activity”) [2, 14] is reported as 10.9 ± 0.3 % of total cellular activity at t = 0 and the “Residual internalized activity” value [2, 15] is reported as 8.3 ± 1.5 % of total cellular activity at t = 0. The “Log PO/PBS” value [3] was −2.90, the “Residual internalized activity” value [4, 14] was 7.8 ± 1.6 % of total cellular activity at t = 0 and the “Residual internalized activity” value [4, 15] was 5.2 ± 1.2 % of total cellular activity at t = 0. For the same molecule, the “Internalization efficiency (internalized activity in % of total cellular activity)” value [5] was 16.4 ± 5.2 % of total cellular activity, the “Residual internalized activity” value ([6]; MCF-7, recycling allowed (medium only)) was 6.5 ± 2.0 % of total cellular activity at t = 0 and the “Residual internalized activity” value ([6]; MCF-7, recycling inhibited (100 μM AMD3100)) was 8.7 ± 2.5 % of total cellular activity at t = 0. The “Internalization efficiency (internalized activity in % of total cellular activity)” value [7] was 29.2 ± 6.4 % of total cellular activity, the “fraction of membrane bound activity versus internalized activity (in words)” value ([8]; Jurkat cells, comparable for the other cell lines) was “considerably higher” and the “Internalization efficiency (internalized activity in % of total cellular activity)” value ([8]; Jurkat, 30 min, 37° C., corrected for non-specific binding (100 μM AMD3100)) was 17.9 ± 4.0 % of total cellular activity. For the same molecule, the “Internalization efficiency (internalized activity in % of total cellular activity)” value [9] was 25.3 ± 7.9 % of total cellular activity, the “Internalization efficiency (internalized activity in % of total cellular activity)” value [10] was 33.8 ± 6.4 % of total cellular activity and the “Residual internalized activity” value [11, 14] was 6.8 ± 2.7 % of total cellular activity at t = 0. For the same molecule, the “Residual internalized activity” value [11, 15] was 3.6 ± 0.3 % of total cellular activity at t = 0, the “Internalization efficiency (internalized activity in % of total cellular activity)” value [12] was 37.0 ± 7.5 % of total cellular activity and the “Residual internalized activity” value ([13]; HT-29, recycling allowed (medium only)) was 10.6 ± 0.8 % of total cellular activity at t = 0. The “Residual internalized activity” value ([13]; HT-29, recycling inhibited (100 μM AMD3100)) was 9.5 ± 2.0 % of total cellular activity at t = 0 and the “ligand recycling (in words)” value ([13]; HT-29 cells, nearly identical results for the other cell lines) was “almost no ligand recycling”.
